According to article PMC2896393:
No constants are given. Whether binding was seen depends on the method and setting. Binding seen in cells or lysates may run through a third protein. Some entries that bind do so weakly or less than the wild type.

Sequences of proteins named here, by UniProt entry; tags and fusion partners are left off.
UniProt P29590: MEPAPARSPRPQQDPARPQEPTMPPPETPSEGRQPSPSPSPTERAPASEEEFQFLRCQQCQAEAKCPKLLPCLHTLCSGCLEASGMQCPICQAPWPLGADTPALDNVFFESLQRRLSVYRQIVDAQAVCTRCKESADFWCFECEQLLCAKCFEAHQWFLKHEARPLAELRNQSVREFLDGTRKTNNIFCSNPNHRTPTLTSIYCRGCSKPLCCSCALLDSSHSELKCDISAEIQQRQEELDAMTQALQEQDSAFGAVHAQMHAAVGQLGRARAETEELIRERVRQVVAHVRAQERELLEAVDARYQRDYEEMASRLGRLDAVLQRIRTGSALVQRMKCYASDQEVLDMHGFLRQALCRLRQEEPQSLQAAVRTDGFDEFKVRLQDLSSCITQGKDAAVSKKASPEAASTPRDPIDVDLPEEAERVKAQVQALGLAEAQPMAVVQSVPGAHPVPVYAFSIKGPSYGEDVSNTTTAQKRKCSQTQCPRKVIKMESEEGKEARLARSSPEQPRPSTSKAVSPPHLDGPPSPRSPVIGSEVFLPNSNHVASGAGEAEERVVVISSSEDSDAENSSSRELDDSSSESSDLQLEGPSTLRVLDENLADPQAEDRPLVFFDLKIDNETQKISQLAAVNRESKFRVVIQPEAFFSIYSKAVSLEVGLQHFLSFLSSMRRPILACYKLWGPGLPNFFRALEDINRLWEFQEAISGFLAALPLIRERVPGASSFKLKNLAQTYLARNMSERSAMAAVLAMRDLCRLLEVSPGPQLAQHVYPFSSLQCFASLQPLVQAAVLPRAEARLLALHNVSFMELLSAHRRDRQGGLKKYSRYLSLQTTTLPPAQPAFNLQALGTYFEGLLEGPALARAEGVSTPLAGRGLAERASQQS
UniProt Q8NEV1: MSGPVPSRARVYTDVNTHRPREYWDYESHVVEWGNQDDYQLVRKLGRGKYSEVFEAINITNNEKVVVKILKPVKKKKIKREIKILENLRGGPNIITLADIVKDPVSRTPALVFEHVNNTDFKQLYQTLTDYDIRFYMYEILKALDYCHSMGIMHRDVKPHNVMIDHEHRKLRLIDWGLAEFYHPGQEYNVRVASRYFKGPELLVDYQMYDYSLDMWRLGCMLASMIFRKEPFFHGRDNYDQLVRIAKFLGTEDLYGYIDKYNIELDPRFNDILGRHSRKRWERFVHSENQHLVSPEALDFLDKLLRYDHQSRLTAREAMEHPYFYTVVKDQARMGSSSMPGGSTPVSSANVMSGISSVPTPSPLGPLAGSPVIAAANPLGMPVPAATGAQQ
UniProt P68400: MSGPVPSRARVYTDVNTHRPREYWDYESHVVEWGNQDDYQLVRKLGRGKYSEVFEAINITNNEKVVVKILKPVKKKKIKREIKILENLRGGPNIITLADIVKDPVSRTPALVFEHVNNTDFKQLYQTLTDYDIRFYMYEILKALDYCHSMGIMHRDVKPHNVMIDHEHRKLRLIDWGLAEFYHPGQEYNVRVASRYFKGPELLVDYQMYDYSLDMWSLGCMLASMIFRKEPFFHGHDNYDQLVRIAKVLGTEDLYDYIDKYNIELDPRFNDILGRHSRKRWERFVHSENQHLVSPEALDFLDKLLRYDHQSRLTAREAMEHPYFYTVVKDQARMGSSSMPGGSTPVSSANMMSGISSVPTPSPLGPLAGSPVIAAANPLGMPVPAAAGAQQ

Biological target: PML-V5 (PML tumor suppressor protein, from PML pcDNA4/V5-His) (UniProt P29590)
Experiment: co-IP; 293T cells co-transfected with PML-V5 and Myc-tagged CSNK2A1 or CSNK2A1P; 10 µM MG132 24 h after transfection; NP-40 lysis buffer (150 mM NaCl, 50 mM Tris pH 8.0, 1% NP40); reciprocal immunoprecipitation with anti-Myc tag and anti-V5 tag antibodies (Catch and Release v2.0)

binding	Substance
binds	Myc-tagged CSNK2A1P (I133), product of the 398T allele of the CK2α intronless gene (from UniProt Q8NEV1 1-391) (enzyme)
binds	Myc-tagged CSNK2A1 (CK2α, from CSNK2A1 pcDNA3.1/myc-His) (from UniProt P68400 1-391) (enzyme)
